Assay results published in article doi:10.1101/2024.07.31.606019.
Results are given in words; binding and its absence hold for the method and conditions named. Binding seen in cells or lysates may run through a third protein. Some results given as binding are weak or reduced against the parent protein; the word gives no strength. Sequences can lack the tags named with a protein.

Chains of the proteins cited; added tags and fusions are not shown.
UniProt Q05609: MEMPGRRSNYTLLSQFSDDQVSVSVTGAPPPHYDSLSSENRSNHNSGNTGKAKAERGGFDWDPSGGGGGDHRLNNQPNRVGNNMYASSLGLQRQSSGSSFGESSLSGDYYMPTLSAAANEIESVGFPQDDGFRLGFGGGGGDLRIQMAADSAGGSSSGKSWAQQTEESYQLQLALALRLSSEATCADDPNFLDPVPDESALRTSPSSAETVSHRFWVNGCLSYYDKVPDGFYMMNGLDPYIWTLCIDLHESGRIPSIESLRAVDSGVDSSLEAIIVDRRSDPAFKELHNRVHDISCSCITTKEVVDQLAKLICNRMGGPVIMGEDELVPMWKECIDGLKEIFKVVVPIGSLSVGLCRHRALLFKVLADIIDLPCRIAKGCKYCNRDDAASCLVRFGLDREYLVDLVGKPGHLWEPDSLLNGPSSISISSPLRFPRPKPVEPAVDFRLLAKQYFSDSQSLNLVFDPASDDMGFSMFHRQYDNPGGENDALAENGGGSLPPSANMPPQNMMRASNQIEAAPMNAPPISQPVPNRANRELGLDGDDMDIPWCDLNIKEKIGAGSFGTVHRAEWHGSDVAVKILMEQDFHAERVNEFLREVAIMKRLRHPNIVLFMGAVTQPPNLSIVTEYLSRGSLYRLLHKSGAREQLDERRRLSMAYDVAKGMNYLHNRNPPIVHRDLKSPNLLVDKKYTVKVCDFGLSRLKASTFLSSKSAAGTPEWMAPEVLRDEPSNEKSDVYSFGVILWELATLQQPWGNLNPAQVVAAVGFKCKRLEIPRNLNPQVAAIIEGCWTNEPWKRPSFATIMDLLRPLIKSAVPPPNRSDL

Experiments:
[1] = target: nYFP-CTR1 (Constitutive Triple Response 1) (Arabidopsis thaliana) (UniProt Q05609); experiment: split reporter
[2] = target: GFP-CTR1 (35S:GFP-CTR1) (Arabidopsis thaliana) (UniProt Q05609); experiment: co-IP

Binder | binding [1] | binding [2]
cYFP-ATG8a (protein, UniProt Q8LEM4 1-117) MAKSSFKISNPLEARMSESSRIREKYPDRIPVIVEKAGQSDVPDIDKKKYLVPADLTVGQFVYVVRKRIKLGAEKAIFVFVKNTLPPTAALMSAIYEEHKDEDGFLYMTYSGENTFG | binds | 
myc-ATG8a (35S:Myc-ATG8a) (protein, UniProt Q8LEM4 1-117) MAKSSFKISNPLEARMSESSRIREKYPDRIPVIVEKAGQSDVPDIDKKKYLVPADLTVGQFVYVVRKRIKLGAEKAIFVFVKNTLPPTAALMSAIYEEHKDEDGFLYMTYSGENTFG |  | binds
